Data as given in the supplement of paper PMC8728848.
This is one part of the list.

Tests used:
Test in all cases: glycan array binding signal (z-score within array); higher = stronger binding
Conditions in all cases: glycan notation: IUPAC condensed, linker removed
[1] = target: GlcNAc(b1-3)Gal(b1-4)GlcNAc(b1-3)Gal(b1-4)GlcNAc
Summary of the method: (§1)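 Arrays were curated from the Consortium for Functional Glycomics database, 3228 in total, and kept only where the protein sequence was available. Binding is expressed as a within-array Z-score. This score was averaged across arrays of the same protein sequence at different concentrations or buffers and across linkers, and negative values can be read as non-binding.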

GlcNAc(b1-3)GalNAc = target: GlcNAc(b1-3)GalNAc
Summary of the method: as §1

GlcNAc(b1-3)Man = target: GlcNAc(b1-3)Man
Summary of the method: as §1

[2] = target: GlcNAc(b1-3)[GlcNAc(b1-4)][GlcNAc(b1-6)]GlcNAc
Summary of the method: as §1

[3] = target: GlcNAc(b1-3)[GlcNAc(b1-6)]Gal(b1-4)GlcNAc
Summary of the method: as §1

[4] = target: GlcNAc(b1-3)[GlcNAc(b1-6)]GalNAc
Summary of the method: as §1

[5] = target: GlcNAc(b1-4)Gal(b1-4)GlcNAc
Summary of the method: as §1

GlcNAc(b1-4)GlcNAc = target: GlcNAc(b1-4)GlcNAc
Summary of the method: as §1

[6] = target: GlcNAc(b1-4)GlcNAc(b1-4)GlcNAc
Summary of the method: as §1

[7] = target: GlcNAc(b1-4)GlcNAc(b1-4)GlcNAc(b1-4)GlcNAc(b1-4)GlcNAc
Summary of the method: as §1

[8] = target: GlcNAc(b1-4)GlcNAc(b1-4)GlcNAc(b1-4)GlcNAc(b1-4)GlcNAc(b1-4)GlcNAc
Summary of the method: as §1

[9] = target: GlcNAc(b1-4)[GlcNAc(b1-6)]GalNAc
Summary of the method: as §1

[10] = target: GlcNAc(b1-6)Gal(b1-4)GlcNAc
Summary of the method: as §1

GlcNAc(b1-6)GalNAc = target: GlcNAc(b1-6)GalNAc
Summary of the method: as §1

GlcNAc3Prop(b1-4)GlcNAc = target: GlcNAc3Prop(b1-4)GlcNAc
Summary of the method: as §1

[11] = target: GlcNAc6S(b1-3)Gal(b1-4)GlcNAc
Summary of the method: as §1

Kdn(a2-3)Gal(b1-3)GalNAc = target: Kdn(a2-3)Gal(b1-3)GalNAc
Summary of the method: as §1

Kdn(a2-3)Gal(b1-3)GlcNAc = target: Kdn(a2-3)Gal(b1-3)GlcNAc
Summary of the method: as §1

Kdn(a2-3)Gal(b1-4)Glc = target: Kdn(a2-3)Gal(b1-4)Glc
Summary of the method: as §1

Kdn(a2-3)Gal(b1-4)GlcNAc = target: Kdn(a2-3)Gal(b1-4)GlcNAc
Summary of the method: as §1

[12] = target: Kdn(a2-3)Gal(b1-4)[Fuc(a1-3)]GlcNAc
Summary of the method: as §1

Kdn(a2-6)Gal(b1-4)GlcNAc = target: Kdn(a2-6)Gal(b1-4)GlcNAc
Summary of the method: as §1

[13] = target: Man(a1-2)Man(a1-2)Man(a1-3)Man
Summary of the method: as §1

[14] = target: Man(a1-2)Man(a1-2)Man(a1-6)[Man(a1-3)]Man
Summary of the method: as §1

Man(a1-2)Man(a1-3)Man = target: Man(a1-2)Man(a1-3)Man
Summary of the method: as §1

[15] = target: Man(a1-2)Man(a1-3)[Man(a1-2)Man(a1-6)]Man
Summary of the method: as §1

[16] = target: Man(a1-2)Man(a1-3)[Man(a1-2)Man(a1-6)]Man(a1-6)[Man(a1-2)Man(a1-2)Man(a1-3)]Man
Summary of the method: as §1

[17] = target: Man(a1-2)Man(a1-3)[Man(a1-2)Man(a1-6)]Man(a1-6)[Man(a1-2)Man(a1-2)Man(a1-3)]Man(b1-4)GlcNAc(b1-4)GlcNAc
Summary of the method: as §1

[18] = target: Man(a1-2)Man(a1-3)[Man(a1-6)]Man(a1-6)[Man(a1-2)Man(a1-3)]Man(b1-4)GlcNAc(b1-4)GlcNAc
Summary of the method: as §1

[19] = target: Man(a1-2)Man(a1-6)[Man(a1-3)]Man(a1-6)[Man(a1-2)Man(a1-2)Man(a1-3)]Man
Summary of the method: as §1

[20] = target: Man(a1-2)Man(a1-6)[Man(a1-3)]Man(a1-6)[Man(a1-2)Man(a1-2)Man(a1-3)]Man(b1-4)GlcNAc(b1-4)GlcNAc
Summary of the method: as §1

Man(a1-3)[Man(a1-6)]Man = target: Man(a1-3)[Man(a1-6)]Man
Summary of the method: as §1

[21] = target: Man(a1-3)[Man(a1-6)]Man(a1-6)[Man(a1-2)Man(a1-3)]Man(b1-4)GlcNAc(b1-4)GlcNAc
Summary of the method: as §1

[22] = target: Man(a1-3)[Man(a1-6)]Man(a1-6)[Man(a1-3)]Man
Summary of the method: as §1

[23] = target: Man(a1-3)[Man(a1-6)]Man(a1-6)[Man(a1-3)]Man(b1-4)GlcNAc(b1-4)GlcNAc
Summary of the method: as §1

[24] = target: Man(a1-3)[Man(a1-6)]Man(b1-4)GlcNAc(b1-4)GlcNAc
Summary of the method: as §1

Man(a1-6)Man = target: Man(a1-6)Man
Summary of the method: as §1

Man(b1-4)GlcNAc = target: Man(b1-4)GlcNAc
Summary of the method: as §1

Neu5Ac(a2-3)Gal = target: Neu5Ac(a2-3)Gal
Summary of the method: as §1

[25] = target: Neu5Ac(a2-3)Gal(b1-3)GalNAc
Summary of the method: as §1

[26] = target: Neu5Ac(a2-3)Gal(b1-3)GalNAc(b1-3)Gal(a1-4)Gal(b1-4)Glc
Summary of the method: as §1

[27] = target: Neu5Ac(a2-3)Gal(b1-3)GalNAc(b1-4)[Neu5Ac(a2-3)]Gal(b1-4)Glc
Summary of the method: as §1

[28] = target: Neu5Ac(a2-3)Gal(b1-3)GalNAc6S
Summary of the method: as §1

[29] = target: Neu5Ac(a2-3)Gal(b1-3)GlcNAc
Summary of the method: as §1

[30] = target: Neu5Ac(a2-3)Gal(b1-3)GlcNAc(b1-2)Man(a1-3)[Neu5Ac(a2-3)Gal(b1-3)GlcNAc(b1-2)Man(a1-6)]Man(b1-4)GlcNAc(b1-4)GlcNAc
Summary of the method: as §1

B1: SspB (Streptococcus gordonii), P16952 (protein)
chain: MKNKKEVYGFRKSKVAKTLCGAVLGTALIAFADKAVFADEVTETTSTSTVEVATTGNPATNLPEAQGEMSQVAKESQAKAGSKESALPVEVSSADLDKAVADAKSAGVKVVQDETKDKGTATTATDNAQKQDEIKSDYAKQAEEIKTTTEAYKKEVAAHQAETDKINAENKAADDKYQKDLKSHQEEVEKINTANATAKAEYEAKLAQYQKDLATVKKANEDSQQDYQNKLSAYQTELARVQKANAEAKEAYEKAVKENTAKNEALKVENEAIKQRNETAKATYEAAMKQYEADLAAIKKANEDNDADYQAKLAAYQTELARVQKANAEAKEAYDKAVKENTAKNTAIQAENEAIKQRNETAKATYDAAVKKYEADLAAVKQANATNEADYQAKLAAYQTELARVQKANADAKATYEKAVEDNKAKNAAIKAENEEIKQRNAVAKTDYEAKLAKYEADLAKYKKEFAAYTAALAEAESKKKQDGYLSEPRSQSLNFKSEPNAIRTIDSSVHQYGQQELDALVKSWGISPTNPDRKKSRAYSYFNAINSNNTYAKLVLEKDKPVDVTYTGLKNSSFNGKKISKVVYTYTLKETGFNDGTKMTMFASSDPTVTAWYNDYFTSTNINVKVKFYDEEGQLMNLTGGLVNFSSLNRGNGSGAIDKDAIESVRNFNGRYIPISGSSIKIHENNSAYADSSNAEKSLGARWNTSEWDTTSSPNNWYGAIVGEITQSEISFNMASSKSGNIWFAFNSNINAIGVPTKPVAPTAPTQPMYETEKPLEPAPVAPSYENEPTPPVKTPDQPEPSKPEEPTYETEKPLEPAPVAPSYENEPTPPVKTPDQPEPSKPEEPNYETEKPLEPAPVAPSYENEPTPPVKIPDQPEPSKPEEPTYDPLPTPPLAPTPKQLPTPPVVPTVHFHYSSLLAQPQINKEIKNEDGVDIDRTLVAKQSIVKFELKTEALTAGRPKTTSFVLVDPLPTGYKFDLDATKAASTGFDTTYDEASHTVTFKATDETLATYNADLTKPVETLHPTVVGRVLNDGATYTNNFTLTVNDAYGIKSNVVRVTTPGKPNDPDNPNNNYIKPTKVNKNKEGLNIDGKEVLAGSTNYYELTWDLDQYKGDKSSKEAIQNGFYYVDDYPEEALDVRPDLVKVADEKGNQVSGVSVQQYDSLEAAPKKVQDLLKKANITVKGAFQLFSADNPEEFYKQYVATGTSLVITDPMTVKSEFGKTGGKYENKAYQIDFGNGYATEVVVNNVPKITPKKDVTVSLDPTSENLDGQTVQLYQTFNYRLIGGLIPQNHSEELEDYSFVDDYDQAGDQYTGNYKTFSSLNLTMKDGSVIKAGTDLTSQTTAETDATNGIVTVRFKEDFLQKISLDSPFQAETYLQMRRIAIGTFENTYVNTVNKVAYASNTVRTTTPIPRTPDKPTPIPTPKPKDPDKPETPKEPKVPSPKVEDPSAPIPVSVGKELTTLPKTGTNDATYMPYLGLAALVGFLGLGLAKRKED
- glycan array binding signal (z-score) [1]: -1.92
- glycan array binding signal (z-score) (GlcNAc(b1-3)GalNAc): -0.468
- glycan array binding signal (z-score) (GlcNAc(b1-3)Man): 0.161
- glycan array binding signal (z-score) [2]: -0.829
- glycan array binding signal (z-score) [3]: 0.038
- glycan array binding signal (z-score) [4]: -0.453
- glycan array binding signal (z-score) [5]: -1.07
- glycan array binding signal (z-score) (GlcNAc(b1-4)GlcNAc): -0.001
- glycan array binding signal (z-score) [6]: -0.851
- glycan array binding signal (z-score) [7]: 1.01
- glycan array binding signal (z-score) [8]: -1.6
- glycan array binding signal (z-score) [9]: -1.39
- glycan array binding signal (z-score) [10]: 1.24
- glycan array binding signal (z-score) (GlcNAc(b1-6)GalNAc): -1.06
- glycan array binding signal (z-score) (GlcNAc3Prop(b1-4)GlcNAc): 0.336
- glycan array binding signal (z-score) [11]: 0.472
- glycan array binding signal (z-score) (Kdn(a2-3)Gal(b1-3)GalNAc): 0.527
- glycan array binding signal (z-score) (Kdn(a2-3)Gal(b1-3)GlcNAc): -0.205
- glycan array binding signal (z-score) (Kdn(a2-3)Gal(b1-4)Glc): 1.04
- glycan array binding signal (z-score) (Kdn(a2-3)Gal(b1-4)GlcNAc): 0.115
- glycan array binding signal (z-score) [12]: -1.37
- glycan array binding signal (z-score) (Kdn(a2-6)Gal(b1-4)GlcNAc): -0.665
- glycan array binding signal (z-score) [13]: 0.605
- glycan array binding signal (z-score) [14]: 0.022
- glycan array binding signal (z-score) (Man(a1-2)Man(a1-3)Man): 0.806
- glycan array binding signal (z-score) [15]: -0.574
- glycan array binding signal (z-score) [16]: 1.48
- glycan array binding signal (z-score) [17]: -1.07
- glycan array binding signal (z-score) [18]: 1.11
- glycan array binding signal (z-score) [19]: 0.903
- glycan array binding signal (z-score) [20]: 0.792
- glycan array binding signal (z-score) (Man(a1-3)[Man(a1-6)]Man): 1.4
- glycan array binding signal (z-score) [21]: -0.43
- glycan array binding signal (z-score) [22]: -0.191
- glycan array binding signal (z-score) [23]: -0.356
- glycan array binding signal (z-score) [24]: -0.773
- glycan array binding signal (z-score) (Man(a1-6)Man): 2.65
- glycan array binding signal (z-score) (Man(b1-4)GlcNAc): -0.696
- glycan array binding signal (z-score) (Neu5Ac(a2-3)Gal): -0.182
- glycan array binding signal (z-score) [25]: 0.398
- glycan array binding signal (z-score) [26]: 0.761
- glycan array binding signal (z-score) [27]: -0.026
- glycan array binding signal (z-score) [28]: 0.579
- glycan array binding signal (z-score) [29]: -1.14
- glycan array binding signal (z-score) [30]: -0.185
